According to PubChem BioAssay AID720711 (National Center for Advancing Translational Sciences (NCATS), 2013):
About 290 (0.081%) of roughly 360,000 compounds were called active. This list was built around the results that the source calls inconclusive (neither active nor inactive); the mix of calls is not that of the screen. Calls follow the shape of the dose curve; as a rule, active = well fitted activation curve with a large enough effect; inconclusive = small, poorly fitted or top-dose-only effect; inactive = no such curve, though single readings can be large or run the other way. A potency beside an inconclusive call is a rough fit, not a confirmed value.

Protein sequences, listed by entry. Tags and fused reporters are not part of them.
UniProt Q8WZA2, whole entry, looked up: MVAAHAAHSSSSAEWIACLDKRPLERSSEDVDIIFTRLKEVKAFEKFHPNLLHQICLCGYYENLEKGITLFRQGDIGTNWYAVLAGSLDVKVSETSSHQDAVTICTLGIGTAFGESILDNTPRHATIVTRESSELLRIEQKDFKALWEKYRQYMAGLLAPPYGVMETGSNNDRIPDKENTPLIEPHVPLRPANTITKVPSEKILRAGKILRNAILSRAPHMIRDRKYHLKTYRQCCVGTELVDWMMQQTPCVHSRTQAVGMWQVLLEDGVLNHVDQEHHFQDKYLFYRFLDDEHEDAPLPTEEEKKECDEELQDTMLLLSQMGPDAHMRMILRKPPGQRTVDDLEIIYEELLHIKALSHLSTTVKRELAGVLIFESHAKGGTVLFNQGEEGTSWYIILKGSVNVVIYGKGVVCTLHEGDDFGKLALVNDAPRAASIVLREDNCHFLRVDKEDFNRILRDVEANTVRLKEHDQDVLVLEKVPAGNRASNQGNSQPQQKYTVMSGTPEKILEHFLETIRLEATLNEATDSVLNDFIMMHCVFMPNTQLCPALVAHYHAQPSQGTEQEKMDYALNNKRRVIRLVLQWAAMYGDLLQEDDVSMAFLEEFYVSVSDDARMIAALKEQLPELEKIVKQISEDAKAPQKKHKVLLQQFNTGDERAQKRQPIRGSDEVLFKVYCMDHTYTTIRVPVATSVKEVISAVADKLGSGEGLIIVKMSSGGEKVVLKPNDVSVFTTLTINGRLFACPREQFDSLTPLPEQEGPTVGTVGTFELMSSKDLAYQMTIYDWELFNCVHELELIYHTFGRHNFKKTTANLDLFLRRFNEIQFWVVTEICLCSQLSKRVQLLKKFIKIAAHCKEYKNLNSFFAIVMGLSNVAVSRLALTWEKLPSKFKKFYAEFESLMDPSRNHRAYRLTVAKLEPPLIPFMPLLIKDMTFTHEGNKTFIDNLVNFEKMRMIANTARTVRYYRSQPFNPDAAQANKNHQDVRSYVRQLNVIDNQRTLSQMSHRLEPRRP

Biological target: Rap guanine nucleotide exchange factor 4 (Homo sapiens) (UniProt Q8WZA2)
Assay: qHTS for Agonist of cAMP-regulated guanine nucleotide exchange factor 4 (EPAC2): primary screen; also: nearly all actives have a fitted effect of over 50% in size
Conditions: biochemical qHTS; Potency: EPAC2 activation unless noted; activation: at 154 µM (top of the series), 100% = 6.5 mM cAMP response unless noted
Summary of the method: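 Readout is BODIPY fluorescence (480 nm excitation, 540 nm emission), which falls as labeled GDP is exchanged off Rap1B. EPAC2 at 100 nM acted on 250 nM RAP1B-BODIPY-GDP with 50 uM GDP present.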
Potency is read from the fitted curve at half-maximal effect.

Row | Compound | Potency | activation
1 | N#C/C(=C/c1ccc(N2CCOCC2)o1)c1nc2ccccc2[nH]1 | active: 100 µM | –
2 | CN(C)c1ccc(-c2cc3ccccc3c(=O)o2)cc1 | active: 100 µM | –
3 | Fc1ccc(Nc2nc(N3CCOCC3)c3ccccc3n2)cc1 | – | inconclusive: 126% [activator] [at 15.6 µM, 100% = 6.5 mM cAMP response]
4 | CCCn1c(=O)n(C)c(=O)c2c(SCC(=O)NCc3ccco3)nc(C3CC3)nc21 | active: 10 µM | –
5 | CC(=O)C1=C(O)C(=O)N(C2CCCCC2)C1c1ccccc1 (stereo not drawn) | inconclusive: 112 µM [activator, single point] | –
6 | COc1ccc(S(=O)(=O)N2CCN(C(=O)c3cc(C)nc4ccccc34)CC2)cc1OC | inactive | –
7 | Cc1nc(CCNC(=O)C2CCC(=O)N(Cc3ccc(Cl)cc3)C2)sc1C (stereo not drawn) | inactive | –
8 | C=CCn1c(N)c(C(=O)Nc2ccc(C)c(C)c2)c2nc3ccccc3nc21 | inactive | –
9 | O=c1[nH]c2c(s1)C=Nc1ccccc1N2 | inconclusive: 89.1 µM [activator, partial curve] | –
10 | O=C(Oc1ccc(/C=N/n2cnnc2)cc1)c1cccc([N+](=O)[O-])c1 | inconclusive: 100 µM [activator, partial curve, poor fit] | –
11 | O=[N+]([O-])c1cc(C(F)(F)F)ccc1NCCc1c[nH]c2ccc(O)cc12 | inconclusive: 44.7 µM [activator, full curve, poor fit] | –
12 | O=C(O)CSc1cc(NS(=O)(=O)c2cccc([N+](=O)[O-])c2)c2ccccc2c1O | active: 112 µM | –
13 | CC(C)C(OC(=O)c1nsc(Cl)c1Cl)C(=O)NCC1CCCO1 (stereo not drawn) | inactive | –
14 | COc1cccc(-c2cnc(NCc3cc(Cl)ccc3O)n2C)c1 | inconclusive: 100 µM [activator, partial curve, poor fit] | –
15 | O=C(NCc1ccccc1C(F)(F)F)c1cccc2c1C(=O)c1ccc(N3CCCCC3)cc1S2(=O)=O | active: 100 µM | –
16 | N#CCS(=O)(=O)c1ccccc1 | inconclusive: 25.1 µM [activator, partial curve] | –
17 | COc1cccc(OCCSc2nnc3sc4ccccc4n23)c1 | inconclusive: 12.6 µM [activator, partial curve] | –
18 | CCOc1cc(/C=C2\SC(=O)N(CC(=O)Nc3ccccc3F)C2=O)cc([N+](=O)[O-])c1O | inactive | –
19 | Cc1ccccc1C1c2[nH]c3ccccc3c2CCN1CCCn1cccn1 (stereo not drawn) | inconclusive: 100 µM [activator, partial curve] | –
20 | O=C(CN(C(=O)CCC(=O)Nc1ccccn1)c1ccc(F)cc1)NCCc1ccccc1 | inconclusive: 126 µM [activator, single point] | –
21 | Cc1cn([C@H]2C[C@H](O)[C@@H](CNC/C=C/c3ccccc3[N+](=O)[O-])O2)c(=O)[nH]c1=O | inactive | –
22 | CC1CCCC(C)N1C(=O)c1cc(-c2cccs2)on1 (stereo not drawn) | inactive | –
23 | O=CN(CCN(C=O)CN1CCCCC1)CN1CCCCC1 | inconclusive: 126 µM [activator, single point] | –
24 | CN(C)CCNS(=O)(=O)c1ccc2c3c(cccc13)C(=O)N2 | inactive | –
25 | COc1ccc2cc(C(=O)N/N=C/c3sc4ccccc4c3O)ccc2c1 | inactive | –

Row | Compound | Potency | activation
26 | COc1ccc(NC(=O)C(c2ccc(C(F)(F)F)cc2)n2c(=O)c(-c3cc4ccccc4[nH]3)nc3ccccc32)cc1 (stereo not drawn) | inactive | –
27 | CCOC(=O)c1[nH]c2ccc(OCC)cc2c1NC(=O)CN1CCN(c2ccccn2)CC1 | inconclusive: 100 µM [activator, partial curve] | –
28 | CC(NC(=O)/C(C#N)=C/c1ccc(N2CCOCC2)cc1)c1ccccc1 (stereo not drawn) | inconclusive: 100 µM [activator, partial curve] | –
29 | O=C1CC(c2ccc(Cl)cc2)n2nc(N3C(=O)c4ccccc4C3=O)nc2N1 (stereo not drawn) | – | inconclusive: 86.8% [activator] [at 15.6 µM, 100% = 6.5 mM cAMP response]
30 | CC(=O)c1sc(NC(=O)c2cccc3ccccc23)nc1C | inconclusive: 50.1 µM [activator, single point] | –
31 | Cc1ccsc1-c1nc(C(N)=O)c2[nH]c(=O)n(-c3ccc(Cl)cc3)c2n1 | inconclusive: 50.1 µM [activator, single point] | –
32 | Cc1onc(-c2ccccc2)c1NC(=O)N(CCC(=O)O)Cc1ccccc1 | inactive | –
33 | CCOC(=O)c1ccc(NC(=S)NCCC2=CCCCC2)cc1 | inconclusive: 15.8 µM [activator, partial curve] | –
34 | O=C1c2ccccc2NC(c2ccc(-c3ccc(F)cc3)o2)N1O (stereo not drawn) | inactive | –
35 | Nc1ncnc2c1C(c1ccccc1)c1c(ccc3ccccc13)O2 (stereo not drawn) | inactive | –
36 | COc1ccc(OC)c(NC(=O)c2ccc(CN3CCOCC3)cc2)c1 | – | inconclusive: 157% [activator] [at 15.6 µM, 100% = 6.5 mM cAMP response]
37 | O=C(/C=C/c1ccc([N+](=O)[O-])cc1)c1ccccc(=O)c1O | inactive | –
38 | CC(/C=C/c1ccc(N(C)C)cc1)=N/N=C1/NC(=O)CC(C(=O)Nc2ccc(Cl)cc2)S1 (stereo not drawn) | inconclusive: 100 µM [activator, partial curve] | –
39 | COC(=O)c1ccc(N2C(=O)CC(N3CCOCC3)C2=O)cc1 (stereo not drawn) | inconclusive: 100 µM [activator, single point] | –
40 | O=C(Nc1ncccc1O)c1c(O)c2ccccc2[nH]c1=O | inconclusive: 79.4 µM [activator, partial curve] | –
41 | COc1cc(C(N)=O)cc(Br)c1OC | inconclusive: 100 µM [activator, single point] | –
42 | O=c1[nH]nc(-c2ccc(F)cc2)cc1Cc1ccc(F)cc1 | inconclusive: 31.6 µM [activator, single point] | –
43 | COc1ccc(C2NC(=O)c3sc4nc(C)c(C(C)=O)c(-c5ccc(Cl)cc5)c4c3N2)cc1 (stereo not drawn) | – | inconclusive: 77.8% [activator] [at 15.6 µM, 100% = 6.5 mM cAMP response]
44 | CN1/C(=C\C=C2/C(=O)Oc3ccccc3C2=O)C(C)(C)c2ccccc21 | active: 79.4 µM | –
45 | CCOC(=O)[C@H]1[C@H]2COc3ccc(C)cc3[C@@H]2N2C(=O)c3ccc(C)cc3NC(=O)[C@@]12C | active: 79.4 µM | –
46 | O=C(COC(=O)CNC(=O)c1ccccc1Cl)NC1CCCC1 | inconclusive: 126 µM [activator, single point] | –
47 | CN1CCC2(CC1)C1CN(C)CC=C1C(C#N)=C(N)C2(C#N)C#N (stereo not drawn) | inactive | –
48 | Cc1ccc(NC(=O)c2ccc(NS(=O)(=O)/C=C/c3ccccc3)cc2)nc1 | inconclusive: 89.1 µM [activator, partial curve] | –
49 | COCCNC(=O)/C(C#N)=C/c1ccc(OCc2ccccc2)cc1 | inconclusive: 112 µM [activator, partial curve] | –
50 | CCN1C/C(=C/c2ccc(N3CCOCC3)cc2)C(=O)/C(=C/c2ccc(N3CCOCC3)cc2)C1 | active: 89.1 µM | –

Looked up by structure from above (3):
Row | Compound | Potency | activation
50 | CCN1C/C(=C/c2ccc(N3CCOCC3)cc2)C(=O)/C(=C/c2ccc(N3CCOCC3)cc2)C1 | active: 89.1 µM | –
33 | CCOC(=O)c1ccc(NC(=S)NCCC2=CCCCC2)cc1 | inconclusive: 15.8 µM [activator, partial curve] | –
23 | O=CN(CCN(C=O)CN1CCCCC1)CN1CCCCC1 | inconclusive: 126 µM [activator, single point] | –

Next part:

Row | Compound | Potency | activation
51 | CCOC(=O)c1nn(-c2ccccc2C)c(=O)c2c(N)scc12 | inactive | –
52 | CCSc1ccccc1C(=O)NC1CCCCC1 | inconclusive: 50.1 µM [activator, single point] | –
53 | CCOc1ccc(C(=O)OCC(=O)NCc2ccco2)cc1OCC | inconclusive: 112 µM [activator, single point] | –
54 | CN(C)/C=C1\C=C2C(=O)c3ccccc3N2C1=O | active: 35.5 µM | –
55 | O=c1oc2ccccc2nc1/C=C(\O)c1ccccc1 | inconclusive: 126 µM [activator, partial curve] | –
56 | CC(C)c1ccc(Nc2nnns2)cc1 | inactive | –
57 | COc1ccc(N2CCN(C(=O)C(OC(C)=O)c3ccccc3)CC2)cc1 (stereo not drawn) | inconclusive: 126 µM [activator, single point] | –
58 | COc1cccc(-n2cnc3scc(-c4cccs4)c3c2=O)c1 | inactive | –
59 | COc1ccc(-c2ccc(-c3noc(-c4ccccc4)n3)c(OC)n2)cc1 | inactive | –
60 | N#CC12CCCCC1CC1CCCCC1(C#N)N2CCO (stereo not drawn) | inconclusive: 126 µM [activator, single point] | –
61 | CC(=Nc1ccc(C)cc1)c1sc2ccccc2c1O | inconclusive: 89.1 µM [activator, partial curve] | –
62 | COC(=O)c1ccc(NC(=O)CSc2nnc(COc3ccc4c(c3)CCCC4)o2)cc1 | inactive | –
63 | CN(C)c1ccc(C(=O)/C=C/c2ccc(Br)cc2)cc1 | active: 100 µM | –
64 | C=CCn1c(SCC(=O)NCc2ccccc2)nnc1C1CCCCC1 | – | inconclusive: 230% [activator] [at 15.6 µM, 100% = 6.5 mM cAMP response]
65 | COc1cc(OC)cc(-c2cc3ccc(F)cc3cn2)c1 | inconclusive: 31.6 µM [activator, full curve, poor fit] | –
66 | Cc1ccc2c(c1)C(=O)C(=O)N2Cc1ccc(F)cc1 | inactive | –
67 | COc1ccc(C(=O)OCC(=O)NC23CC4CC(CC(C4)C2)C3)c(O)c1 | inconclusive: 50.1 µM [activator, partial curve] | –
68 | Cc1ccc(CNc2nc3cc(-c4ccccc4)sc3c(=O)n2C)c(C)c1 | inactive | –
69 | CC(=O)N1N=C(c2ccc(Br)cc2)CC1c1ccc(Br)cc1 (stereo not drawn) | inactive | –
70 | COc1ccccc1C(=O)COC(=O)c1ccc(-n2cnnn2)cc1 | inconclusive: 50.1 µM [activator, single point] | –
71 | O=C1C(=O)c2ccccc2C([O-])=C1[n+]1ccccc1 | inactive | –
72 | Cc1nc2ccc(Cl)cc2nc(C)/c1=N\O | inconclusive: 100 µM [activator, partial curve] | –
73 | Cc1ccc(C2=N/C(=C\c3c(C)nn(-c4ccccc4)c3N3CCCC3)C(=O)O2)cc1 | active: 100 µM | –
